PubChem BioAssay AID652272, Drosophila RNAi Screening Center, 2013
Purpose: 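Genes whose knock-down decreases or increases Hedgehog reporter output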 (primary screen). System: Drosophila clone 8 (Cl8) cells. Knock-down reagent: long dsRNA against Drosophila genes. Read-out: 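Firefly light from a Hedgehog-responsive ptc promoter reporter and Renilla reference light, both read on a plate reader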. Reading the numbers: firefly Hh reporter signal: higher = more ptc reporter light; Renilla reference signal: higher = more Renilla control light. Rule for the call: 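Called a hit if the two-replicate mean z-score lies below -2 or above +3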. Calls: active = hit: reporter lowered or raised; inactive = not a hit.
The screen tested about 21,000 reagents; shown is an unselected part of those that have a named target and a result. In the full data, 503 (2.4%) were called active. 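Raw plate light values, not normalised; calls rest on replicate z-scores that were not deposited; hits include reporter decreases as well as increases.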 Entries without a mark were called inactive. Names joined by + are all predicted targets of the reagent. Not given: the amount of reagent, the time to read-out.

firefly Hh reporter signal, replicate 1 | firefly Hh reporter signal, replicate 2 | firefly Hh reporter signal, replicate 3 | Renilla reference signal, replicate 1 | Renilla reference signal, replicate 2 | gene | amplicon
40745 | 50301 | 61680 | 4432 | 4636 | Abp1 | DRSC09693
1.12e5 | 67014 | – | 2907 | 6520 | CG15155 | DRSC02456
55693 | 89233 | – | 2316 | 3445 | CG7810 | DRSC03072
82645 | 62448 | – | 2681 | 4496 | SmydA-6 | DRSC07341
54903 | 91515 | – | 1700 | 2528 | ps | DRSC15149
55191 | 46771 | – | 1875 | 1488 | ps | DRSC15151
62500 | 65660 | – | 2249 | 2068 | ps | DRSC15152
50860 | 92291 | – | 852 | 2448 | ps | DRSC16388
64171 | 28850 | – | 2323 | 1154 | CG5888 | DRSC01929
75303 | 1.64e5 | – | 985 | 7492 | Rpp20 + CG33932 | DRSC19467
4.46e5 | 64295 | – | 22853 | 2109 | TfIIA-S | DRSC16883
61238 | 84932 | – | 1733 | 2634 | CG14607 | DRSC12551
88003 | 1.71e5 | – | 4197 | 7162 | mip130 | DRSC18575
5.90e5 | 1.11e5 | – | 24883 | 3445 | CG10514 | DRSC14249
33639 | 33482 | – | 3984 | 2013 | Ppat-Dpck | DRSC09744
60951 | 77517 | – | 1286 | 1605 | CG14881 | DRSC15005
1.08e5 | 52090 | – | 4048 | 2289 | GXIVsPLA2 | DRSC10243

Already shown: entries from further up.
firefly Hh reporter signal, replicate 1 | firefly Hh reporter signal, replicate 2 | firefly Hh reporter signal, replicate 3 | Renilla reference signal, replicate 1 | Renilla reference signal, replicate 2 | gene | amplicon
55693 | 89233 | – | 2316 | 3445 | CG7810 | DRSC03072
82645 | 62448 | – | 2681 | 4496 | SmydA-6 | DRSC07341
54903 | 91515 | – | 1700 | 2528 | ps | DRSC15149
55191 | 46771 | – | 1875 | 1488 | ps | DRSC15151
62500 | 65660 | – | 2249 | 2068 | ps | DRSC15152

The list goes on.
firefly Hh reporter signal, replicate 1 | firefly Hh reporter signal, replicate 2 | firefly Hh reporter signal, replicate 3 | Renilla reference signal, replicate 1 | Renilla reference signal, replicate 2 | gene | amplicon
1.02e5 | 77610 | – | 2508 | 5085 | BomT2 | DRSC06631
69367 (active) | 69896 | – | 1255 | 1048 | Rcd1 | DRSC07116
94089 | 57977 | – | 1587 | 5418 | CG30271 | DRSC04170
1.08e5 | 1.06e5 | – | 4832 | 4128 | Phm | DRSC04639
87883 | 59381 | – | 2253 | 6442 | ND-B8 | DRSC00449
88672 | 66449 | – | 4163 | 2795 | CG3285 | DRSC00589
33461 | 60843 | 71444 | 6597 | 5610 | CG32109 | DRSC09816
67891 | 80889 | – | 1600 | 2160 | CG8611 | DRSC19340
2.43e5 | 1.66e5 | – | 8501 | 5629 | CG42375 + CG9288 | DRSC16468
1.02e5 | 73816 | – | 2698 | 5957 | Dif | DRSC03316
1.04e5 | 54502 | – | 2486 | 5116 | dimm | DRSC03100
1.18e5 | 94074 | – | 3282 | 6419 | CG18367 | DRSC06545
78113 | 64409 | – | 2088 | 4443 | CG10474 | DRSC05993
93251 | 50151 | – | 2656 | 4441 | mip120 | DRSC06960
98476 | 2.45e5 | – | 2293 | 9888 | CG30010 | DRSC05193
71667 | 61651 | – | 2898 | 2087 | CG8833 | DRSC11050
64069 | 1.16e5 | – | 2000 | 2800 | tomboy20 | DRSC14913
91595 | 52491 | – | 3643 | 2052 | Rop | DRSC08693
6.15e5 | 2.42e5 | – | 29802 | 4689 | CG43134 | DRSC17318
1.05e5 | 57933 | – | 2775 | 5653 | Gr28b | DRSC02291
83011 | 41344 | – | 2144 | 4691 | Gr28b | DRSC02292
44988 | 93688 | – | 1797 | 2587 | CG8032 | DRSC16365
